According to PubChem BioAssay AID1487 (National Center for Advancing Translational Sciences (NCATS), 2009):
This is one part of the list. Further columns of the screen follow, without active or inactive calls. The list favours compounds with an active or inconclusive main result. Words in brackets tell the shape of the fitted curve; partial curves, single points and poor fits give uncertain potencies.

Assay: qHTS Assay for Modulators of Lamin A Splicing
Settings: HeLa LMNA splicing GFP/RFP minigene ratio, 48 h
In short: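 S3 HeLa stable clones carrying a lamin A-EGFP splicing minigene plus DsRed2 were seeded at 600 cells/well in Opti-MEM with 2% FBS, pin-dosed and incubated 48 h at 37°C. Acumen cytometry (488 nm) gave the GFP/RFP total-intensity ratio.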

[1] = measured here: RFP viability control channel
[2] = measured here: GFP splicing reporter channel

Row | SMILES | AC50 [1] | AC50 [2]
1 | COc1cccc(OC)c1C(=O)NC(=S)Nc1ccc(N2CCOCC2)c(Cl)c1 | 0.0251 µM [falling, full curve, poor fit] | –
2 | c1ccc(-c2csc3ncn4nnnc4c23)cc1 | 22.4 µM [falling, single point] | 17.8 µM [falling, partial curve]
3 | CCOC(=O)c1c(-c2cccs2)csc1NC(=O)C(C)(C)C | 35.5 µM [rising, single point] | 15.8 µM [rising, single point]
4 | COc1ccc(Cn2c(=O)[nH]c3cc(C(=O)N4CCN(Cc5ccccc5)CC4)ccc3c2=O)cc1 | 3.98 µM [rising, full curve] | 3.55 µM [rising, partial curve]
5 | CCC(=O)N1CC2(c3ccccc3)CN(C(=O)CC)CC(c3ccccc3)(C1)C2=O | 35.5 µM [rising, single point] | –
6 | COc1ccc(NS(=O)(=O)c2ccc3oc(SCc4ccc(F)cc4)nc3c2)cc1 | 6.31 µM [rising, full curve] | –
7 | Cc1cc(C)cc(NC(=O)c2sc3nc[nH]c(=O)c3c2C)c1 | – | 6.31 µM [falling, partial curve]
8 | O=C1CN(C(=O)CSc2nc(-c3ccc(Cl)cc3)cs2)c2ccccc2N1 | 35.5 µM [rising, single point] | –
9 | CCOC(=O)Cn1c(=O)n(CC2CCCO2)c2nc(-c3ccccc3Cl)nc(C(N)=O)c21 (configuration not stated) | 0.00316 µM [falling, full curve, poor fit] | –
10 | COc1cc(OC)c(OC)cc1CNc1cc(C)ccc1OC | 20 µM [rising, partial curve] | 0.0794 µM [rising, full curve, poor fit]
11 | Clc1ccc(/C=C\c2nccc3c2[nH]c2ccccc23)cc1 | 8.91 µM [falling, partial curve, poor fit] | –
12 | Cc1cccc(C)c1NC(=O)CS(=O)CC(=O)NC1CCN(Cc2ccccc2)CC1 (configuration not stated) | 1.41 µM [rising, full curve, poor fit] | 3.55 µM [rising, partial curve, poor fit]
13 | CCOc1ccccc1NC(=O)/C(C#N)=C/c1c(C)nn(-c2ccc(F)cc2)c1Cl | 0.2 µM [rising, full curve, poor fit] | –
14 | CCCCCCCCCCCCCCCC[n+]1cccc2ccccc21 | 35.5 µM [rising, single point] | –
15 | O=C1N/C(=C/c2cccn2-c2ccc(F)cc2)C(=O)N1Cc1ccccc1F | 3.16 µM [rising, single point] | –
16 | CCCn1c2ccc(F)cc2c2nnc(NN)nc21 | – | 22.4 µM [falling, single point]
17 | O=C(Nc1ccc2c(c1)OCCO2)C1CCCN(S(=O)(=O)c2cnc[nH]2)C1 (configuration not stated) | 0.282 µM [rising, partial curve] | –
18 | CC(C)N(Cc1nc(-c2ccc(Cl)cc2)no1)C(=O)CN(C)S(=O)(=O)c1ccc(Cl)cc1 | 17.8 µM [rising, single point] | –

Row | SMILES | AC50 [1] | AC50 [2]
19 | CCOc1ccccc1NC(=O)C1=C(C)Nc2ncnn2C1c1sccc1C (configuration not stated) | 0.00794 µM [falling, full curve] | –
20 | Cc1cccc(C(=O)N2CCN(c3ccc(C(F)(F)F)cn3)CC2)c1C | 35.5 µM [rising, single point] | 14.1 µM [rising, single point]
21 | COc1cc(-c2nnc3n2N=C(c2ccccc2)CS3)cc(OC)c1OC | 3.55 µM [rising, single point] | –
22 | O=C(O)c1cc2nc3c(c(C(F)(F)F)n2n1)CCCC3 | – | 0.794 µM [rising, full curve, poor fit]
23 | COc1ccc(NC(=S)NC(NC(=O)c2cccc(Cl)c2)C(Cl)(Cl)Cl)c([N+](=O)[O-])c1 (configuration not stated) | – | 35.5 µM [falling, single point]
24 | COc1ccc(-c2csc(NC(=O)C3CCCCN3S(=O)(=O)c3ccccc3)n2)cc1 (configuration not stated) | 7.08 µM [rising, full curve] | 2.82 µM [rising, full curve]
25 | CCOc1ccc(OCC)c(NC(=O)CSc2nc3ccccc3c(=O)n2C)c1 | 4.47 µM [rising, full curve] | –
26 | CCNc1ncc2nc(-c3cccs3)c(=O)n(Cc3cccc(OC)c3)c2n1 | 17.8 µM [falling, partial curve, poor fit] | 20 µM [falling, partial curve, poor fit]
27 | CCc1cc2ccc(C)cc2nc1SCC(=O)Nc1cc(OC)c(OC)cc1C(=O)O | 22.4 µM [rising, partial curve, poor fit] | –
28 | O=C(C(Cc1ccccc1)N1C(=O)c2ccccc2C1=O)N1c2ccccc2CCc2ccccc21 (configuration not stated) | 10 µM [rising, partial curve] | –
29 | OCl | – | 3.16 µM [rising, single point]
30 | Cc1cc(Cl)cc(Br)c1OCCCNCC(C)O (configuration not stated) | 35.5 µM [rising, partial curve, poor fit] | 0.0282 µM [rising, full curve, poor fit]
31 | CN(C)c1ccc(-c2nc3ccccc3n2C)cc1 | 20 µM [rising, single point] | 14.1 µM [rising, single point]
32 | CN(C)C(CNC(=O)c1cccc(S(=O)(=O)N(C)C)c1)c1ccccc1 (configuration not stated) | – | 5.62 µM [falling, single point]
33 | CN(C)c1ccc(N=Nc2ccccc2C(=O)OCC(=O)N(C)C2CCCCC2)cc1 | 7.94 µM [rising, partial curve, poor fit] | –
34 | Cc1cc(=O)oc2cc(OCc3ccc(C(=O)N4CCN(c5ccccc5)CC4)cc3)ccc12 | 15.8 µM [rising, partial curve] | 6.31 µM [rising, partial curve]
35 | CC(=O)Oc1ccc2ccccc2c1C(NC(=O)C(C)C)c1cccc([N+](=O)[O-])c1 (configuration not stated) | 20 µM [rising, single point] | –
36 | COc1ccc(C(=O)NCC(c2cccnc2)N2CCN(c3ccccc3OC)CC2)cc1 (configuration not stated) | 14.1 µM [rising, single point] | –

Laid out differently: results already given.

| Row | SMILES | AC50 [1] | AC50 [2] |
| --- | --- | --- | --- |
| 11 | Clc1ccc(/C=C\c2nccc3c2[nH]c2ccccc23)cc1 | 8.91 µM [falling, partial curve, poor fit] | – |
| 12 | Cc1cccc(C)c1NC(=O)CS(=O)CC(=O)NC1CCN(Cc2ccccc2)CC1 (configuration not stated) | 1.41 µM [rising, full curve, poor fit] | 3.55 µM [rising, partial curve, poor fit] |
